Assay results as given in article PMC5110553.
No constants are given. Whether binding was seen depends on the method and setting. In cells and extracts the contact can be indirect. Some results given as binding are weak or reduced against the parent protein; the word gives no strength.

Protein sequences, listed by entry. Tags and fused reporters are not part of them.
UniProt P06733: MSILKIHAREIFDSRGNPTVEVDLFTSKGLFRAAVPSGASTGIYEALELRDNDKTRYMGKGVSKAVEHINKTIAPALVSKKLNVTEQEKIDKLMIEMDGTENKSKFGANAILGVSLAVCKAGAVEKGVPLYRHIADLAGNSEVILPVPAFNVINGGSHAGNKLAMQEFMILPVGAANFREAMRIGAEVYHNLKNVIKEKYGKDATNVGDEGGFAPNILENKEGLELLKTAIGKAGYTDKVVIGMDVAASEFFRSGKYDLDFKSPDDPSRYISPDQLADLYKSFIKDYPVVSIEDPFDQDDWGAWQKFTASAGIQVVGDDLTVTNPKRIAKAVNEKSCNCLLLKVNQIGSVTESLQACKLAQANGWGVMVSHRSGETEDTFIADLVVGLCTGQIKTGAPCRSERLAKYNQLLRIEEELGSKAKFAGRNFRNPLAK
UniProt Q2YLD2: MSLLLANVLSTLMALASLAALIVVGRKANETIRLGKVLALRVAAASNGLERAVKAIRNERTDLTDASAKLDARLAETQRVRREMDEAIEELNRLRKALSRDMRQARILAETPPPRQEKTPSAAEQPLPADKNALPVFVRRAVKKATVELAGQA

Assays:
[1] = biological target: human alpha-enolase (ENO-1) (human) (UniProt P06733); assay: co-IP
[2] = biological target: His_BPE123 (Brucella abortus 2308) (UniProt Q2YLD2); assay: pull-down; only the target purified

| Substance | binding [1] | binding [2] |
| --- | --- | --- |
| Myc_BPE123 (from UniProt Q2YLD2 1-153) | binds | – |
| human alpha-enolase (ENO-1) (from UniProt P06733 1-434) (enzyme) | – | binds |
